From the supplement of paper PMC12819154, “High-throughput peptide-centric local stability assay extends protein–ligand identification to membrane proteins, tissues and bacteria” (Nature Structural & Molecular Biology, 2025)
This is one part of the list. Most values lie at the level of the controls, where differences are scatter.

The chains behind the UniProt entries cited, without tags or fusion partners. Where a name states a change or a piece, a line headed by the entry shows the natural chain unless it says otherwise.
UniProt Q8CFA2: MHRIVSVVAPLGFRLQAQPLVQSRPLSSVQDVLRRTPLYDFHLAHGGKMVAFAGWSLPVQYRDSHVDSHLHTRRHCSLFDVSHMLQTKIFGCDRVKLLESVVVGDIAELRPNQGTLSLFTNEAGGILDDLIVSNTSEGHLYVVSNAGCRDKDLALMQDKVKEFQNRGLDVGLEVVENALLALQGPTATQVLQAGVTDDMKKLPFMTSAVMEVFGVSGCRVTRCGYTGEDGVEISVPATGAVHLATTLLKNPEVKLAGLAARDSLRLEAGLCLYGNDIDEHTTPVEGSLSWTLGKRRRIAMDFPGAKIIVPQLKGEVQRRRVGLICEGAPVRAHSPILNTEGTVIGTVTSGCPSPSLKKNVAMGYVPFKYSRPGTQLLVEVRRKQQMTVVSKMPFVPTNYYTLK
UniProt Q8JZQ9, whole entry: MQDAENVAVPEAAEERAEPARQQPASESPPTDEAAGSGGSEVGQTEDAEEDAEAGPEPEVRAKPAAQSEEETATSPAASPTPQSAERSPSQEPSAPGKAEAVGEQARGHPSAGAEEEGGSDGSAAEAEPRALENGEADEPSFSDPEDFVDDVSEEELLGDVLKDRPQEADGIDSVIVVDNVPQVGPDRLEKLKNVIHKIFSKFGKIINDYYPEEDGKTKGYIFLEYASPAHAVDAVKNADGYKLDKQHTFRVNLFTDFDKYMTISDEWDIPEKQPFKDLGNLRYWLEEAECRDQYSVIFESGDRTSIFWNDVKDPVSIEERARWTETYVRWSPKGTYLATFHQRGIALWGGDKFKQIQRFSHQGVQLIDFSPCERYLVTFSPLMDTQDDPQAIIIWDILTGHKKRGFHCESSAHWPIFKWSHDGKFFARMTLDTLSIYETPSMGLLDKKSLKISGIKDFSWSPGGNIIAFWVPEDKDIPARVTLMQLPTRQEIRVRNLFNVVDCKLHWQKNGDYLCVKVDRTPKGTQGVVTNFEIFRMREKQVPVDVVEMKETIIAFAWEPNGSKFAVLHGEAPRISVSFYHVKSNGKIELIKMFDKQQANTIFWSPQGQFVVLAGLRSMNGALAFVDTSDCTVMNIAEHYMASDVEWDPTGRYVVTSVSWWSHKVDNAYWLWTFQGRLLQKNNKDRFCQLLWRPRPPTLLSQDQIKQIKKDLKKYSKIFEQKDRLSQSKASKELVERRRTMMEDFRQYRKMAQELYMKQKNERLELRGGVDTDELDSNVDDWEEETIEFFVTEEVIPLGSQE
UniProt Q8CFW7: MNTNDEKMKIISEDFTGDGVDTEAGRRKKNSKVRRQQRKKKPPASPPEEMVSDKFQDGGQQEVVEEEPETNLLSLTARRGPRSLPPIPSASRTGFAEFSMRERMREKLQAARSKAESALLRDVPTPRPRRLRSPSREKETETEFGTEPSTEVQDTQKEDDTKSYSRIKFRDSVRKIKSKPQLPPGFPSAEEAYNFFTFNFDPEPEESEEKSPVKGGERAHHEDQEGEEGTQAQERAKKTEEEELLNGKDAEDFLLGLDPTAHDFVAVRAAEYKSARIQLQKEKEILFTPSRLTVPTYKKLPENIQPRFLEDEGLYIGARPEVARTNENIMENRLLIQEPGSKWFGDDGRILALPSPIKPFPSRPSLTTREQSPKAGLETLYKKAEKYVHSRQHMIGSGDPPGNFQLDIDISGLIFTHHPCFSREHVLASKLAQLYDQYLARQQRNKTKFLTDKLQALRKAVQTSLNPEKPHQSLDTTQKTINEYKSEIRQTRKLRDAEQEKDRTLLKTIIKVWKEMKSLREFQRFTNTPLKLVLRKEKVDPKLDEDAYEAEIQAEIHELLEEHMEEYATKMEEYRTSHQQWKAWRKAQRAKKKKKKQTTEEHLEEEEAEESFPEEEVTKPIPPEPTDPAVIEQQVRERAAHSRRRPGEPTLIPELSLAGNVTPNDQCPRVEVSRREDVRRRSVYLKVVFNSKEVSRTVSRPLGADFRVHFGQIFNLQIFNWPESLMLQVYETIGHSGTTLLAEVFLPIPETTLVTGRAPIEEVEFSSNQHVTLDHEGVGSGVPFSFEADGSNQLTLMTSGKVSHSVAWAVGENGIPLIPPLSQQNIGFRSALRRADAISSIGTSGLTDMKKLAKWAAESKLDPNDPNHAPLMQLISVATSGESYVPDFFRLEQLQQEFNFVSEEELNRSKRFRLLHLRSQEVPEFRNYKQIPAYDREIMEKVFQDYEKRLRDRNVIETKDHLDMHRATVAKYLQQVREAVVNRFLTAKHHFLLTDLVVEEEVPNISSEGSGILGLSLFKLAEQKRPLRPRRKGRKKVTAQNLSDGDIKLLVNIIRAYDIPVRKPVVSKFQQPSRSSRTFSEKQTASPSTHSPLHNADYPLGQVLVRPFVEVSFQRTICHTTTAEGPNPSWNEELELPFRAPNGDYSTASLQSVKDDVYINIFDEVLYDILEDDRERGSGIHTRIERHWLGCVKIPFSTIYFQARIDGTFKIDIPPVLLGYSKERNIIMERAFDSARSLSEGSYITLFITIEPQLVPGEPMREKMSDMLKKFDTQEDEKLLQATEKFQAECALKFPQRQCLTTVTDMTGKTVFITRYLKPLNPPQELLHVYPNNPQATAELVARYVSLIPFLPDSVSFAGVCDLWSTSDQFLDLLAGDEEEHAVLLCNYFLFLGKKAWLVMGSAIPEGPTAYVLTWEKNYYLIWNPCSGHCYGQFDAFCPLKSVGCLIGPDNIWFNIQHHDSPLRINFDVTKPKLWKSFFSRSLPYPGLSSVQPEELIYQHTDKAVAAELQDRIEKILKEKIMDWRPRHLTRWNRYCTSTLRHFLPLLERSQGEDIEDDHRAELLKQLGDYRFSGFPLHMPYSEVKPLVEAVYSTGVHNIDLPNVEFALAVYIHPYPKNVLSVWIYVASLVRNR
UniProt Q8CJ53: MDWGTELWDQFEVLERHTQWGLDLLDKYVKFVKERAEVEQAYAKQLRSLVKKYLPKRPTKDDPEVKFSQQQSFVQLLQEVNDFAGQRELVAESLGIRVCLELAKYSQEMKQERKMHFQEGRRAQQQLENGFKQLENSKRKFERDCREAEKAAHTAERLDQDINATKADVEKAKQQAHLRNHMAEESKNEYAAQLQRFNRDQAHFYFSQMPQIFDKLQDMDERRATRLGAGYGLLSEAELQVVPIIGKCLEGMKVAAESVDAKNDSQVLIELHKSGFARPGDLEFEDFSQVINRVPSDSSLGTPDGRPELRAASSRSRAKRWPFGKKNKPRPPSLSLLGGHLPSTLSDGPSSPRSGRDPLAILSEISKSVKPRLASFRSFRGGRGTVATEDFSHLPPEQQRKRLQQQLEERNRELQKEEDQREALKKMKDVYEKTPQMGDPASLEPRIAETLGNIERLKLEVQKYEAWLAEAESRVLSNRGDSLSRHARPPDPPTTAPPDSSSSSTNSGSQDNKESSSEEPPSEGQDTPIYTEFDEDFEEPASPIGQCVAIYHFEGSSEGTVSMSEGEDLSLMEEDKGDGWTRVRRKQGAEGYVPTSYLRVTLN
UniProt Q8CCP0: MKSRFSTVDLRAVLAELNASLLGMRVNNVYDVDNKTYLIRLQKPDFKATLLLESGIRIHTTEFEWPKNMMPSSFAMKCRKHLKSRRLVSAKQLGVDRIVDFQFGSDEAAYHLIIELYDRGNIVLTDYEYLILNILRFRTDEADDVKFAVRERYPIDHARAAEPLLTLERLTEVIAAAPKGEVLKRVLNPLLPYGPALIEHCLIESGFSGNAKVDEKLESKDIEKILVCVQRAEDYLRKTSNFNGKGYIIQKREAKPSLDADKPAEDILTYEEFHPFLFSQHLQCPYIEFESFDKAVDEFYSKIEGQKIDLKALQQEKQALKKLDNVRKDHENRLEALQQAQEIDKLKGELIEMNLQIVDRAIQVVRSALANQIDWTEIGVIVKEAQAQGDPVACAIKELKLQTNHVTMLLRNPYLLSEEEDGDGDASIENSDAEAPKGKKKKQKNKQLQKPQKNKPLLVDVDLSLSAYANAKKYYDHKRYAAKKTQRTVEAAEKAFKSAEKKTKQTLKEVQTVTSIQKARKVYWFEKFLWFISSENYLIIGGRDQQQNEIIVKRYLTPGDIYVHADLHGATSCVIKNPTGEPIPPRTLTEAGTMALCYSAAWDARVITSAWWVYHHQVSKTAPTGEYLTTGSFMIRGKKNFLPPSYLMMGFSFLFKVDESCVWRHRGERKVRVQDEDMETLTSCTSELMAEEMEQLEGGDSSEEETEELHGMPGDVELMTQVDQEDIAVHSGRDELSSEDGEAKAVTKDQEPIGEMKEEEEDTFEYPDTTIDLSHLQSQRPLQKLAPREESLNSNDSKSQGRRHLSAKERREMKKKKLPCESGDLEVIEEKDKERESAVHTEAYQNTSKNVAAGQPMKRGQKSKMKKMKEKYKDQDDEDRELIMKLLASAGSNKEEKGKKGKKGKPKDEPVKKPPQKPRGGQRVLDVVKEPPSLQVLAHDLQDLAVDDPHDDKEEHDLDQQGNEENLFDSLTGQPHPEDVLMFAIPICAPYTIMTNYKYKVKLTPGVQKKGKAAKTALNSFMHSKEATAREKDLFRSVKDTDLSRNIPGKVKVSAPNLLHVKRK
UniProt Q8CDM1: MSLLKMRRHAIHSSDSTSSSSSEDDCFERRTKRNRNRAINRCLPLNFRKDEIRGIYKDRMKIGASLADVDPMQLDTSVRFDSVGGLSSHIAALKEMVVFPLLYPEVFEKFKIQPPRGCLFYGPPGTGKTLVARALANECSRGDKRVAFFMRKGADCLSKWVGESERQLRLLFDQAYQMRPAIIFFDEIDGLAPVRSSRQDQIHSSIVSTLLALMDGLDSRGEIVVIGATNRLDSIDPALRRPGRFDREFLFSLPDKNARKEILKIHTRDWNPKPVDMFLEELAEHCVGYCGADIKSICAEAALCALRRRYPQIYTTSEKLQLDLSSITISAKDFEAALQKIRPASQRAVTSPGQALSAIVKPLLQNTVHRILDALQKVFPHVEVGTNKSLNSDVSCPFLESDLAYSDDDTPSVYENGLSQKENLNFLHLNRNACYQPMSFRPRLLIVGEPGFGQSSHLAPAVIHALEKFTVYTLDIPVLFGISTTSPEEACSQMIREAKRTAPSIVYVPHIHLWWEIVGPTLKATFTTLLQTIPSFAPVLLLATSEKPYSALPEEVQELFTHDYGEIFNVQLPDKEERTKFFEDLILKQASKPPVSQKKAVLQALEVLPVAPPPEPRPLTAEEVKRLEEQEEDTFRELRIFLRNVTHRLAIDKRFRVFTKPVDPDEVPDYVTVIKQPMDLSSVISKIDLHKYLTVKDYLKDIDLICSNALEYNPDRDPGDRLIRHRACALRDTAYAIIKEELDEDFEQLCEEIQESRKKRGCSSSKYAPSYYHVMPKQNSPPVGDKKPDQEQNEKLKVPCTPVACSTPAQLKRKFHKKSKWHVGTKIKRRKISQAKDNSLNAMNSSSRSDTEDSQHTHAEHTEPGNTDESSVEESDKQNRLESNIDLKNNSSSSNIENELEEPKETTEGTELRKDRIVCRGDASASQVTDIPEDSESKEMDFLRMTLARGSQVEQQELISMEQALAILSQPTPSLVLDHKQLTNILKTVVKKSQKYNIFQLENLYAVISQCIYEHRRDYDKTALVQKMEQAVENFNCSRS
UniProt Q8CG50: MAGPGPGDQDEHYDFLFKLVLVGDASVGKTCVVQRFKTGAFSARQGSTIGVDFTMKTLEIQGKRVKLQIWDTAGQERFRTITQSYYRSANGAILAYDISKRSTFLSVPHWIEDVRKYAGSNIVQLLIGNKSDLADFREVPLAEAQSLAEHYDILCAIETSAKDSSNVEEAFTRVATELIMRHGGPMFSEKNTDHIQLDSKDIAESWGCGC
UniProt Q8CBY3: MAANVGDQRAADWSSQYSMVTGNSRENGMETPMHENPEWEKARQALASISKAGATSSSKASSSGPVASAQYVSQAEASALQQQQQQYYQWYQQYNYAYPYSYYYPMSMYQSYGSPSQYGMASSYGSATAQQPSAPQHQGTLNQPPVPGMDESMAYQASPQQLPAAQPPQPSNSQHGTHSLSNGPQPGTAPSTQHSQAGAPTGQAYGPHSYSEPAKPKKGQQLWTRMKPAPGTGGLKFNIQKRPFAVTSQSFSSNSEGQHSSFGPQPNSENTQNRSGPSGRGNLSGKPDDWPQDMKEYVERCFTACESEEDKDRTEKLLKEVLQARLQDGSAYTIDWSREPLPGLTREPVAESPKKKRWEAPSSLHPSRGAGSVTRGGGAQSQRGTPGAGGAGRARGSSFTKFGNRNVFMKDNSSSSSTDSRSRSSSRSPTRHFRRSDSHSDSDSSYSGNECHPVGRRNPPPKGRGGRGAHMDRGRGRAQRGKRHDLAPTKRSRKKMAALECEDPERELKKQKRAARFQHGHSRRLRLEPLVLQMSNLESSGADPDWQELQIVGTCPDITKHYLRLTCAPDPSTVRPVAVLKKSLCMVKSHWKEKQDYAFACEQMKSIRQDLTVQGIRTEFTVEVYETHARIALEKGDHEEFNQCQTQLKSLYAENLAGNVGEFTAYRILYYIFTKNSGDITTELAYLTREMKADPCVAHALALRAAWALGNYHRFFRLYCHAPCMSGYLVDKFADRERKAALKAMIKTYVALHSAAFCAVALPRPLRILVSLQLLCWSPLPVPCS

compound: CN[C@@H]1C[C@H]2O[C@@](C)([C@@H]1OC)n1c3ccccc3c3c4c(c5c6ccccc6n2c5c31)C(=O)NC4 [staurosporine]; experiment: log2 fold change of tryptic peptide abundance, ligand vs vehicle (limited proteolysis) (log2 ratio); higher = more trypsin-susceptible (destabilized); conditions: ligand concentration: 20 uM; sample: mouse liver crude lysate; replicate design: treated separately

Target	log2 fold change
UniProt Q8JZN7 (peptide sequence: SCFGHPLAPQALEDVK, peptide start residue: 215)	0.389
UniProt Q8CFA2 (peptide sequence: DKDLALMQDKVK, peptide start residue: 150)	-0.419
UniProt Q8CEI1 (peptide sequence: TVQQHQMVNQALKEEIK, peptide start residue: 80)	0.141
UniProt Q8CB62 (peptide sequence: HIFEMESVR, peptide start residue: 96)	0.394
UniProt Q8CIE0 (peptide sequence: KQESFSLDQR, peptide start residue: 230)	-0.194
UniProt Q8JZQ9 (peptide sequence: GYIFLEYASPAHAVDAVK, peptide start residue: 220)	-0.633
UniProt Q8CFW7 (peptide sequence: AHHEDQEGEEGTQAQER, peptide start residue: 219)	-0.473
UniProt Q8JZV7 (peptide sequence: VSLGHSVADLR, peptide start residue: 207)	0.274
UniProt Q8CFI7 (peptide sequence: LDDDGLIAPGVR, peptide start residue: 848)	0.377
UniProt Q8CDM8 (peptide sequence: QPLLPHINVHRPVQK, peptide start residue: 120)	0.206
UniProt Q8CBD1 (peptide sequence: LQAVASMVEKR, peptide start residue: 241)	0.242
UniProt Q8CJ53 (peptide sequence: RPTKDDPEVK, peptide start residue: 57)	-0.822
UniProt Q8CFB4 (peptide sequence: TLPGGIQVNGPR, peptide start residue: 280)	0.117
UniProt Q8CG16 (peptide sequence: FVRLPVADSEACQR, peptide start residue: 611)	-0.525
UniProt Q8CG79 (peptide sequence: NKLNQEQNAK, peptide start residue: 274)	-0.569
UniProt Q8CIG9 (peptide sequence: ILQPAVPVAVLR, peptide start residue: 270)	-0.194

Target	log2 fold change
UniProt Q8CDJ3 (peptide sequence: KLCNSEFCGENLSK, peptide start residue: 328)	-0.201
UniProt Q8CCP0 (peptide sequence: IHTTEFEWPK, peptide start residue: 58)	0.786
UniProt Q8CID0 (peptide sequence: LQLLSQIR, peptide start residue: 610)	-0.298
UniProt Q8CDM1 (peptide sequence: FDSVGGLSSHIAALK, peptide start residue: 80)	-0.478
UniProt Q8CIL4 (peptide sequence: IAVEEEKR, peptide start residue: 210)	-0.478
UniProt Q8CD15 (peptide sequence: AHFLQLR, peptide start residue: 119)	0.455
UniProt Q8CG50 (peptide sequence: RSTFLSVPHWIEDVRK, peptide start residue: 101)	-0.564
UniProt Q8CE96 (peptide sequence: RDYIQEK, peptide start residue: 340)	0.229
UniProt Q8CG03 (peptide sequence: KELNMEPADLMNR, peptide start residue: 785)	0.251
UniProt Q8CG48 (peptide sequence: HNLQNNESQLK, peptide start residue: 899)	0.839
UniProt Q8CI08 (peptide sequence: DDSWKDGCY, peptide start residue: 573)	0.567
UniProt Q8CBY3 (peptide sequence: CFTACESEEDKDRTEK, peptide start residue: 301)	-0.153
UniProt Q8CDG5 (peptide sequence: TAEGNPTGGLVGLR, peptide start residue: 621)	0.115
UniProt Q8CCN5 (peptide sequence: QPMTLGTITK, peptide start residue: 534)	0.311
UniProt Q8CGF7 (peptide sequence: GGDGGEGERFNPGELR, peptide start residue: 5)	-0.308

Exported as a markdown table: entries from further up.

| Target | log2 fold change |
| --- | --- |
| UniProt Q8JZV7 (peptide sequence: VSLGHSVADLR, peptide start residue: 207) | 0.274 |
| UniProt Q8CBY3 (peptide sequence: CFTACESEEDKDRTEK, peptide start residue: 301) | -0.153 |
